# Experimental data taken from the supplement of paper PMC8728848.
# The list shows a part of the results.
# B1: Pwp1 (Candida glabrata) (protein)
# chain: MGSSHHHHHHSSGLVPRGSHMASANPISITNVCQFPDNWARTAGFQATTVRLGLTIASNTYKELLNYPGLFNFATQKATVTQPNFSISGFPFFTGLYGLTVWPINLLVELQGYFVPPESGNYTFTLQGSDDAAILFFANPSTFACGSQNDWPQPREADITVTDTLVPSRTLYLVKGVAYPIRIAYYNGSGDGKLNVSFKDPSGTTHTDWKGYVWQYSNTCSTCTYT
# What was measured:
# Assay in all cases: glycan array binding signal (z-score within array); higher = stronger binding
# Conditions in all cases: glycan notation: IUPAC condensed, linker removed
# [1] = target: Gal(b1-4)GlcNAc(b1-3)Gal(b1-4)GlcNAc(b1-3)Gal(b1-4)GlcNAc(b1-3)Gal(b1-4)GlcNAc(b1-2)Man(a1-3)[Gal(b1-4)GlcNAc(b1-3)Gal(b1-4)GlcNAc(b1-3)Gal(b1-4)GlcNAc(b1-3)Gal(b1-4)GlcNAc(b1-2)Man(a1-6)]Man(b1-4)GlcNAc(b1-4)[Fuc(a1-6)]GlcNAc
# In short: (§1)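 Glycan array data were curated from 3228 arrays in the Consortium for Functional Glycomics database and kept only where the protein sequence was available. Glycan names were converted to IUPAC-condensed notation, and columns mapping to the same glycan were averaged. The binding signal is a within-array Z-score, averaged across arrays of the same protein sequence at different concentrations or buffers and across linkers. Negative Z-scores can be read as non-binding.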
# [2] = target: Gal(b1-4)GlcNAc(b1-3)Gal(b1-4)GlcNAc(b1-3)Gal(b1-4)GlcNAc(b1-3)Gal(b1-4)GlcNAc(b1-2)[Gal(b1-4)GlcNAc(b1-3)Gal(b1-4)GlcNAc(b1-3)Gal(b1-4)GlcNAc(b1-3)Gal(b1-4)GlcNAc(b1-6)]Man(a1-6)[Gal(b1-4)GlcNAc(b1-3)Gal(b1-4)GlcNAc(b1-3)Gal(b1-4)GlcNAc(b1-3)Gal(b1-4)GlcNAc(b1-2)Man(a1-3)]Man(b1-4)GlcNAc(b1-4)[Fuc(a1-6)]GlcNAc
# In short: as §1
# [3] = target: Gal(b1-4)GlcNAc(b1-3)Gal(b1-4)GlcNAc(b1-3)Gal(b1-4)GlcNAc(b1-3)Gal(b1-4)GlcNAc(b1-3)Gal(b1-4)GlcNAc(b1-2)Man(a1-3)[Gal(b1-4)GlcNAc(b1-3)Gal(b1-4)GlcNAc(b1-3)Gal(b1-4)GlcNAc(b1-3)Gal(b1-4)GlcNAc(b1-3)Gal(b1-4)GlcNAc(b1-2)Man(a1-6)]Man(b1-4)GlcNAc(b1-4)GlcNAc
# In short: as §1
# [4] = target: Gal(b1-4)GlcNAc(b1-3)Gal(b1-4)GlcNAc(b1-3)Gal(b1-4)GlcNAc(b1-3)Gal(b1-4)GlcNAc(b1-3)Gal(b1-4)GlcNAc(b1-2)Man(a1-3)[Gal(b1-4)GlcNAc(b1-3)Gal(b1-4)GlcNAc(b1-3)Gal(b1-4)GlcNAc(b1-3)Gal(b1-4)GlcNAc(b1-3)Gal(b1-4)GlcNAc(b1-2)Man(a1-6)]Man(b1-4)GlcNAc(b1-4)[Fuc(a1-6)]GlcNAc
# In short: as §1
# [5] = target: Gal(b1-4)GlcNAc(b1-3)Gal(b1-4)GlcNAc(b1-3)Gal(b1-4)GlcNAc(b1-3)Gal(b1-4)GlcNAc(b1-3)Gal(b1-4)GlcNAc(b1-2)[Gal(b1-4)GlcNAc(b1-3)Gal(b1-4)GlcNAc(b1-3)Gal(b1-4)GlcNAc(b1-3)Gal(b1-4)GlcNAc(b1-3)Gal(b1-4)GlcNAc(b1-6)]Man(a1-6)[Gal(b1-4)GlcNAc(b1-3)Gal(b1-4)GlcNAc(b1-3)Gal(b1-4)GlcNAc(b1-3)Gal(b1-4)GlcNAc(b1-3)Gal(b1-4)GlcNAc(b1-2)Man(a1-3)]Man(b1-4)GlcNAc(b1-4)[Fuc(a1-6)]GlcNAc
# In short: as §1
# [6] = target: Gal(b1-4)GlcNAc(b1-3)Gal(b1-4)GlcNAc(b1-3)Gal(b1-4)GlcNAc(b1-3)Gal(b1-4)GlcNAc(b1-3)Gal(b1-4)GlcNAc(b1-3)Gal(b1-4)GlcNAc(b1-2)Man(a1-3)[Gal(b1-4)GlcNAc(b1-3)Gal(b1-4)GlcNAc(b1-3)Gal(b1-4)GlcNAc(b1-3)Gal(b1-4)GlcNAc(b1-3)Gal(b1-4)GlcNAc(b1-3)Gal(b1-4)GlcNAc(b1-2)Man(a1-6)]Man(b1-4)GlcNAc(b1-4)GlcNAc
# In short: as §1
# [7] = target: Gal(b1-4)GlcNAc(b1-3)Gal(b1-4)GlcNAc(b1-3)GalNAc
# In short: as §1
# [8] = target: Gal(b1-4)GlcNAc(b1-3)Gal(b1-4)GlcNAc(b1-3)[Gal(b1-4)GlcNAc(b1-3)Gal(b1-4)GlcNAc(b1-6)]GalNAc
# In short: as §1
# [9] = target: Gal(b1-4)GlcNAc(b1-3)Gal(b1-4)GlcNAc(b1-6)[Gal(b1-3)]GalNAc
# In short: as §1
# [10] = target: Gal(b1-4)GlcNAc(b1-3)Gal(b1-4)[Fuc(a1-3)]GlcNAc(b1-3)Gal(b1-4)[Fuc(a1-3)]GlcNAc
# In short: as §1
# [11] = target: Gal(b1-4)GlcNAc(b1-3)GalNAc
# In short: as §1
# [12] = target: Gal(b1-4)GlcNAc(b1-3)[Fuc(a1-3)GlcNAc(b1-6)]Gal(b1-4)Glc
# In short: as §1
# [13] = target: Gal(b1-4)GlcNAc(b1-3)[Gal(b1-4)GlcNAc(b1-6)]Gal(b1-4)GlcNAc
# In short: as §1
# [14] = target: Gal(b1-4)GlcNAc(b1-3)[GlcNAc(b1-6)]Gal(b1-4)GlcNAc
# In short: as §1
# [15] = target: Gal(b1-4)GlcNAc(b1-6)Gal(b1-4)GlcNAc
# In short: as §1
# [16] = target: Gal(b1-4)GlcNAc(b1-6)GalNAc
# In short: as §1
# [17] = target: Gal(b1-4)GlcNAc(b1-6)[Gal(b1-3)]GalNAc
# In short: as §1
# [18] = target: Gal(b1-4)GlcNAc(b1-6)[Gal(b1-4)GlcNAc(b1-3)]GalNAc
# In short: as §1
# [19] = target: Gal(b1-4)GlcNAc6P
# In short: as §1
# [20] = target: Gal(b1-6)Gal
# In short: as §1
# [21] = target: Gal3S(b1-3)GalNAc
# In short: as §1
# [22] = target: Gal3S(b1-3)GlcNAc
# In short: as §1
# [23] = target: Gal3S(b1-3)[Fuc(a1-4)]GlcNAc
# In short: as §1
binder,measurement,setting,value
B1,glycan array binding signal (z-score),[1],-1.93
same,glycan array binding signal (z-score),[2],-1.08
same,glycan array binding signal (z-score),[3],-2.29
same,glycan array binding signal (z-score),[4],-0.637
same,glycan array binding signal (z-score),[5],-3.11
same,glycan array binding signal (z-score),[6],-1.62
same,glycan array binding signal (z-score),[7],-1.48
same,glycan array binding signal (z-score),[8],-1.13
same,glycan array binding signal (z-score),[9],-0.936
same,glycan array binding signal (z-score),[10],0.261
same,glycan array binding signal (z-score),[11],0.712
same,glycan array binding signal (z-score),[12],-1
same,glycan array binding signal (z-score),[13],-1.22
same,glycan array binding signal (z-score),[14],0.289
same,glycan array binding signal (z-score),[15],0.602
same,glycan array binding signal (z-score),[16],-0.9
same,glycan array binding signal (z-score),[17],-0.967
same,glycan array binding signal (z-score),[18],-0.483
same,glycan array binding signal (z-score),[19],-0.27
same,glycan array binding signal (z-score),[20],1.26
same,glycan array binding signal (z-score),[21],-0.192
same,glycan array binding signal (z-score),[22],-0.165
same,glycan array binding signal (z-score),[23],-0.613

# Copied from the listing (2 entries):
binder,measurement,setting,value
B1,glycan array binding signal (z-score),[17],-0.967
same,glycan array binding signal (z-score),[18],-0.483
